Consider 4 molecules from patent publication US7972386B2, “Bleaching of substrates” (Conopco, Inc., priority 2005, dated 2011).

Data set [1] in a line: Catalytic bleaching of pretreated cotton with H2O2, Berger whiteness.
Data set [2] can be described thus: Catalytic bleaching of untreated raw cotton with H2O2, Berger whiteness. The following applies: 2.3% H2O2, 20 μM catalyst; for Whiteness (Berger) WB: 4.7 g/l Na-borax, 60 min 70° C.; for Whiteness (Berger) Wb: carbonate buffer 5 g/l Na-carbonate, 60 min 65° C.
Setting [3] is: 0.2 g/l of each sequestrant with 30 μM [Mn2O3(Me3-TACN)2](PF6)2.H2O, 4.7 g/l Na-borax pH 9.75, 2.3% H2O2, 60 min 65° C.

As for `O=C(O)CN(CCN(CC(=O)O)CC(=O)O)CCN(CC(=O)O)CC(=O)O` [DTPA, diethylenetriaminepentaacetic acid, reference compound], the “Whiteness (Berger) Wb” value in data set [1] (setting [3]) turned out to be 67.5 Berger.
The same measure, in the same setting: the result for `O=C(O)C[C@H](NCCN[C@@H](CC(=O)O)C(=O)O)C(=O)O` [EDDS, reference compound] reads 45.5 Berger.
For the molecule `O=P([O-])(O)CN(CCN(CCN(CP(=O)(O)O)CP(=O)(O)O)CP(=O)(O)O)CP(=O)(O)O.[Na+]` [Dequest 2066], the “Whiteness (Berger) Wb” value in data set [1] (setting [3]) worked out at 57.8 Berger.
`CN1CCN(C)CCN(C)CC1.CN1CCN(C)CCN(C)CC1.F[P-](F)(F)(F)(F)F.F[P-](F)(F)(F)(F)F.O.[Mn+4].[Mn+4].[O-2].[O-2].[O-2]` [[Mn2O3(Me3-TACN)2](PF6)2•H2O, [Mn2O3(Me3-TACN)2] (PF6)2.H2O]: the “Whiteness (Berger) Wb” value in data set [1] (pH 9, borate buffer 2.25 g/l Na-borax, 0.2 g/l DTPA, 2.3% H2O2, 30 μM catalyst, 60 min 65° C.) turned out to be 64.3 Berger; in data set [1] (pH 9.25, borate buffer 2.25 g/l Na-borax, 0.2 g/l DTPA, 2.3% H2O2, 30 μM catalyst, 60 min 65° C.), 66.9 Berger; in data set [1] (pH 9.5, borate buffer 2.25 g/l Na-borax, 0.2 g/l DTPA, 2.3% H2O2, 30 μM catalyst, 60 min 65° C.), 68.6 Berger; in data set [1] (pH 9.75, borate buffer 2.25 g/l Na-borax, 0.2 g/l DTPA, 2.3% H2O2, 30 μM catalyst, 60 min 65° C.) it was 69.3 Berger; in data set [1] (pH 10, borate buffer 2.25 g/l Na-borax, 0.2 g/l DTPA, 2.3% H2O2, 30 μM catalyst, 60 min 65° C.), 69.3 Berger; in data set [1] (pH 10.25, borate buffer 2.25 g/l Na-borax, 0.2 g/l DTPA, 2.3% H2O2, 30 μM catalyst, 60 min 65° C.), 68.9 Berger. Also, the “Whiteness (Berger) Wb” value in data set [1] (pH 10.5, borate buffer 2.25 g/l Na-borax, 0.2 g/l DTPA, 2.3% H2O2, 30 μM catalyst, 60 min 65° C.) is 67.2 Berger; in data set [2] (initial pH 7.07, 0.2 g/l DTPA), 52.2 Berger; in data set [2] (initial pH 7.47, 0.2 g/l DTPA), 52.4 Berger; in data set [2] (initial pH 7.95, 0.2 g/l DTPA), 54.3 Berger; in data set [2] (initial pH 8.5, 0.2 g/l DTPA), 54.4 Berger; in data set [2] (initial pH 8.96, 0.2 g/l DTPA) it was 54.4 Berger. For the same molecule, the “Whiteness (Berger) Wb” value in data set [2] (initial pH 9.53, 0.2 g/l DTPA) came to 52.1 Berger; in data set [2] (initial pH 9.76, 0.2 g/l DTPA) it was 48.1 Berger; in data set [2] (initial pH 10.06, 0.2 g/l DTPA), 47.3 Berger; in data set [2] (initial pH 10.27, 0.2 g/l DTPA), 47.1 Berger; in data set [2] (initial pH 10.56, 0.2 g/l DTPA), 47.3 Berger; in data set [2] (initial pH 10.72, 0.2 g/l DTPA) it was 45.5 Berger. Further, the “Whiteness (Berger) Wb” value was 46.0 Berger in data set [2] (initial pH 10.98, 0.2 g/l DTPA) and 39.3 Berger in data set [2] (initial pH 11.55, 0.2 g/l DTPA). Besides, the “Whiteness (Berger) WB” value in data set [2] (0.1 g/l DTPA, pH 9.75) was determined as 54.0 Berger; in data set [2] (0.1 g/l DTPA, pH 10), 48.6 Berger; in data set [2] (0.2 g/l DTPA, pH 9.75), 55.0 Berger; in data set [2] (0.2 g/l DTPA, pH 10), 54.1 Berger; in data set [2] (without DTPA, pH 9.75), 42.8 Berger.
